Hit rate of the full screen: of about 53,000 sequences, about 3,700 (7%) were called active.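 The calls were made as follows: active = gene knockdowns whose robust z-score for IL-1 alpha signal is at least 2 or at most -2, so actives lie on both sides; inactive = the rest.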 This is one part of the list.
Experiment: Components of the Cytosolic LPS Sensing Pathway: Gene Identification via Genome-wide siRNA Screen;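 also: robust z of the log signal after scaling to non-targeting control siRNA wells of the plate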
Details: RAW264.7 macrophages, IL-1a HTRF, actives lie on both sides, screened at 100 nM (by protocol), cells primed 5 h with Pam3CSK4 first
Procedure, shortened: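 IL-1a HTRF of supernatants after 24 hour LipidA transfection of Pam3CSK4-primed (5 hours) RAW264.7 cells, 48h post-siRNA transfection (100 nM). Scores: percent of plate negative-control median, then log-based robust z-score.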

Sequence	z-score
GGGAAAAAUGGCCUUUCUGTT against Kndc1	inactive: 1.96
GGAGAUUUAACUGAAAGACTT against Zfp410	inactive: -0.0134
GCUAUGCUGAGGAAAAAAATT against Higd1b	inactive: 0.0931
GAGUCACAUGUACCUGGCCTT against Bricd5	inactive: 0.523
GCUCUGAUUCAGCAAGAGUTT against Rsph6a	inactive: -0.128
UGGCGAGAUCGGCAUUGGUTT against Ren2	inactive: -0.319
GGAAGUGCUAUUAAUUGUUTT against Gm9725	inactive: 1.01
GGAGUUUUCAAUUUUGAUGTT against Il17rb	inactive: -0.2
GGAGUUAACAAGAUGAGCGTT against Arhgap24	inactive: -0.0398
GGAUUAUGUCAAGGUCAAATT against Ntng2	inactive: 0.227
GCUACCAUGAGAUUUCUAATT against Dido1	inactive: -0.321
GGACAUGGUGUUGUGCUAUTT against Myt1l	inactive: -0.988
GGAGUACGAAGACUUCUCUTT against Ankrd33b	inactive: -1.95
GGAGCUCUACAUCAUAGACTT against Lhx1	inactive: 0.579
GGAAGAUUUUUCAAAGGAUTT against Itgb6	inactive: -0.325
UCCCUAUCACUUGAGUUUUTT against Pgbd1	inactive: 0.831
GGGAUUUCACCACAGACAGTT against Gtf2a1	inactive: -0.993
GGCUUACUUACCACAGAAUTT against Mlycd	inactive: -1.51
GCCAGGAAACGACAAUAAATT against Slc5a11	inactive: 0.731
GAACAAAUGAGGUCCUCAGTT against Sprr2h	inactive: -1.11
CGAUGAAUUUAGGAGAUCUTT against Sugct	inactive: -0.249
GGUGCCUUUCAUUUUUAACTT against Lamp2	inactive: 0.0373
GGCCAGACACAGGUAGACATT against B9d2	inactive: -1.85

Reprinted from the listing (three entries):
Sequence	z-score
GCCAGGAAACGACAAUAAATT against Slc5a11	inactive: 0.731
GAACAAAUGAGGUCCUCAGTT against Sprr2h	inactive: -1.11
CGAUGAAUUUAGGAGAUCUTT against Sugct	inactive: -0.249

Copied from the list:
z-score with UGGCGAGAUCGGCAUUGGUTT against Ren2 is entered as inactive: -0.319
z-score with GCUAUGCUGAGGAAAAAAATT against Higd1b is entered as inactive: 0.0931

Later entries.

Sequence	z-score
CCAAGUUCAUUCUUUUUGCTT against Cobll1	inactive: 1.2
GCCUUUGAUCUGAUGCACUTT against Adh5	inactive: 0.374
GGAAAACACGAGUUUCCCUTT against Arrdc4	inactive: 1.56
CCUAUAUGCCAAUCUUUCUTT against Rnf152	inactive: 0.174
GUGGCAAGAUGUGAGACUUTT against Rpl4	inactive: 0.343
CCAGGCCAAAUCUCACAAUTT against A730008H23Rik	active: -2.2
GGAUGGAUUACUGAAAGUUTT against Wdr35	inactive: 0.715
GCUGCUGUGACUUAGAUAATT against Cds2	inactive: -0.668
GGAGAAGAGGAAAAUGCGUTT against Prr15	inactive: 0.411
GGUCUGAUUGUCCUCUCUUTT against Slc35b4	active: 3.25
GGAUUCUUCAUCCCUAAAUTT against 4930470P17Rik	inactive: 0.126
CGCAGCGACCAGCUUUCAATT against Srebf2	inactive: 0.789
GCUGUGAGCGGUGUAAGAATT against Usp20	inactive: -0.804
GGAAAGAUCUCCUAAAAUUTT against Lrp6	inactive: 0.412
GCAUUUCAGCAGAACAAUATT against Phldb1	inactive: 0.5
GCUGCCUCUUUCUUUGCUUTT against Pllp	inactive: -0.769
GGGAUAAUGAUGCAACUAATT against Tas2r137	inactive: -1.78
GGAGCUAAAUGGCUCUGAUTT against Boc	active: 2.98
GGUUCUAGACAAACAUUUUTT against Ubl4b	inactive: 0.532
GGUCACCUCUCCAUCUAGATT against Vmn2r57	inactive: 0.813
GGAGCAAGUAUUUACAUUGTT against Psmd10	inactive: 1.55
CCCAAUGUAUUCUACCUACTT against Cast	inactive: 1.12
GGAACAAGAGAGGACAAGUTT against Papss2	inactive: 0.555

Sequence	z-score
CCACUAACGAUGCAAAAAATT against Mep1a	inactive: -0.973
AUUGGCAGUUAAGGACCGATT against Noto	inactive: -0.522
GGAAGGAAUUCUUCAACCUTT against Hsd3b2	inactive: -0.322
GGAUCUCAAUGUUCACUUGTT against Bpifb2	inactive: -0.817
GGUUUAAUGCGACAUAUUGTT against Vmn2r-ps54	inactive: -1.04
CCCUAACUCAAUGUACCAGTT against Slc27a1	inactive: 0.293
CCUAUCCCAAUGAGGAGAATT against Lman2l	inactive: -0.195
GCUAUAUCAGCAGAAUGGCTT against Sun5	inactive: -1.18
GGGUUUUCCGCAUCUUCAATT against Kcna3	inactive: 1.23
GGUUCGUUUUCAACUGGCGTT against Ppp1r35	inactive: 0.778
CCCUGUGUUCACGUUUUACTT against Mrps33	inactive: 1.92
CCAGAUGUUGGAUAAAACGTT against Fbxw10	inactive: -0.333
GGUGAACAAUCUUUUCCAGTT against Fam221b	inactive: -0.921
GCCAAUGCAGGGUAAGUACTT against Tmtc2	active: -2.83
GGAAGCUACAGCAACAUAATT against Magi2	inactive: -1.36
CCUGCUAUUUCUAUAUAACTT against Csgalnact2	inactive: 1.29
GGACUUGAGUCUUUGUGGATT against Atp6v0e2	inactive: -1.9
CCCACAGUACAUUCUAAAATT against Arsb	inactive: 0.776
CGUGAAUGACCUAGCUGAGTT against Spr	inactive: -1.9
AACAGUGCUUUGUGCCAUGTT against Mageb3	inactive: -0.327
CCGAGAAAUGCUAUGAAUGTT against Zfp105	inactive: 0.148
GCAAAAAUUCAACAUCCUGTT against Fbxo4	inactive: 0.575

Source: PubChem BioAssay AID1508600 (Functional Genomics Laboratory (NCATS/FGL), 2020)
